Measurements published in the supplement of paper PMC10626197.

System: MCF7
Assay: cell viability relative to DMSO control (raw), single agent; higher = more viable cells
Details: exposure time 72 h
Experimental: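 MCF7 cells, 1000 cells/well in 384-well plates, single-agent wells of drug 2 (drug 1 at 0 µM) within 6x6 combination matrices (1:3 serial dilutions), 72 h at 37 °C. Viability read by CellTiter-Glo luminescence, 3 biological replicates. Normalised viability sets 0% at the highest doxorubicin dose and 100% at the 0,0 µM control per combination.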

N#CC1(c2ccc(NC(=O)c3cccnc3NCc3ccncc3)cc2)CCCC1 [Apatinib]
cell viability [%]
Details | 0.0617284 µM | 0.185185 µM | 0.555556 µM | 1.66667 µM | 5 µM
plate partner (at 0 µM): Erlotinib | 112 ± 4.5 | 116 ± 6.8 | 114 ± 1.9 | 120 ± 11 | 114 ± 9.7
plate partner (at 0 µM): Vemurafenib | 117 ± 14 | 110 ± 6.8 | 121 ± 5.2 | 109 ± 5.7 | 94.9 ± 8.8
plate partner (at 0 µM): ixabepilone | 122 ± 10 | 113 ± 11 | 119 ± 5.2 | 111 ± 13 | 108 ± 13

Cc1ncc(NC(=O)c2ccc(CN3CCN(C)CC3)c(C(F)(F)F)c2)cc1Nc1nccc(-c2cccnc2)n1 [Flumatinib (mesylate)]
cell viability [%]
Details | plate partner (at 0 µM): Cabazitaxel | plate partner (at 0 µM): Imatinib | plate partner (at 0 µM): Lapatinib | plate partner (at 0 µM): Methotrexate | plate partner (at 0 µM): Mitoxantrone | plate partner (at 0 µM): Pazopanib | plate partner (at 0 µM): Vinblastine | plate partner (at 0 µM): Vincristine
0.617284 µM | 102 ± 4.7 | 103 ± 14 | 88.8 ± 10 | 96.2 ± 6 | 100 ± 8.5 | 90.7 ± 5 | 87.5 ± 2.5 | 107 ± 8.7
1.85185 µM | 106 ± 4.5 | 102 ± 4.8 | 96 ± 6.9 | 95.1 ± 3.5 | 102 ± 8.5 | 91 ± 9.4 | 80.3 ± 3.7 | 95.8 ± 16
5.55556 µM | 105 ± 1.9 | 97.3 ± 5.6 | 98.8 ± 6.5 | 96 ± 3.8 | 99.8 ± 3.5 | 94.9 ± 5 | 88.2 ± 6.1 | 84.7 ± 8.4
16.6667 µM | 2.5 ± 0.54 | 1.19 ± 0.28 | 0.876 ± 0.14 | 1.18 ± 0.2 | 3.84 ± 0.63 | 1.36 ± 0.27 | 4.26 ± 1.1 | 4.97 ± 1
50 µM | 0.824 ± 0.15 | 0.647 ± 0.086 | 0.4325 ± 0.0035 | 0.443 ± 0.063 | 0.82 ± 0.13 | 0.386 ± 0.057 | 1.71 ± 0.74 | 1.64 ± 0.37

COc1ccc2cc([C@H](C)C(=O)O)ccc2c1 [Naproxen]
plate partner (at 0 µM): Tamoxifen
Details | cell viability [%]
0.0925926 µM | 97.3 ± 3.4
0.277778 µM | 97.3 ± 4.1
0.833333 µM | 98.1 ± 4.8
2.5 µM | 91.7 ± 6.6
7.5 µM | 98 ± 12

CN(C)CCOc1ccc(/C(=C(/CCCl)c2ccccc2)c2ccccc2)cc1 [Toremifene (citrate)]
cell viability [%]
Details | 0.432099 µM | 1.2963 µM | 3.88889 µM | 11.6667 µM | 35 µM
plate partner (at 0 µM): Mitoxantrone | 94.8 ± 11 | 95 ± 7 | 85.3 ± 1.5 | 33.5 ± 2.9 | 2.28 ± 0.36
plate partner (at 0 µM): Vinblastine | 95.4 ± 9.9 | 89.3 ± 8.6 | 77.2 ± 4.2 | 20 ± 6.5 | 1.28 ± 0.066
plate partner (at 0 µM): Vincristine | 93.9 ± 6.5 | 87.1 ± 5.3 | 80.1 ± 6.9 | 43.7 ± 2.7 | 2.92 ± 0.87

CN1CCN(C2=Nc3cc(Cl)ccc3Nc3ccccc32)CC1 [Clozapine]
cell viability [%]
Details | 0.123457 µM | 0.37037 µM | 1.11111 µM | 3.33333 µM | 10 µM
plate partner (at 0 µM): Vinblastine | 105 ± 4.2 | 102 ± 3 | 96.8 ± 5.1 | 104 ± 2 | 101 ± 6.5
plate partner (at 0 µM): Vincristine | 97.6 ± 10 | 89.5 ± 6.7 | 95.5 ± 6.9 | 94.7 ± 4.6 | 87.2 ± 6.3

COc1ccc(CC2c3cc(OC)c(OC)cc3CC[N+]2(C)CCC(=O)OCCCCCOC(=O)CC[N+]2(C)CCc3cc(OC)c(OC)cc3C2Cc2ccc(OC)c(OC)c2)cc1OC (stereo not given) [Atracurium (besylate)]
plate partner (at 0 µM): Imatinib
Details | cell viability [%]
0.246914 µM | 100 ± 10
0.740741 µM | 108 ± 10
2.22222 µM | 96.2 ± 6.2
6.66667 µM | 98 ± 12
20 µM | 77.8 ± 16

CCOC(=O)[C@H](CCc1ccccc1)N[C@@H](C)C(=O)N1[C@H](C(=O)O)C[C@@H]2CCC[C@@H]21 [Ramipril]
plate partner (at 0 µM): Vandetanib
Details | cell viability [%]
0.0617284 µM | 110 ± 3.3
0.185185 µM | 108 ± 8.8
0.555556 µM | 109 ± 7.8
1.66667 µM | 113 ± 5
5 µM | 108 ± 3.7

CN(C)C1CCN(C(=O)c2ccc(NC(=O)Nc3ccc(-c4nc(N5CCOCC5)nc(N5CCOCC5)n4)cc3)cc2)CC1
cell viability [%]
Details | 0.0148148 µM | 0.0444444 µM | 0.133333 µM | 0.4 µM | 1.2 µM
plate partner (at 0 µM): Anastrozole | 81.3 ± 2.1 | 52.6 ± 6.7 | 35.1 ± 4.3 | 25.4 ± 6 | 22.1 ± 3.5
plate partner (at 0 µM): Cabazitaxel | 77.3 ± 7.9 | 59.1 ± 8.4 | 40.7 ± 6.6 | 29.3 ± 4.6 | 29.3 ± 5.5
plate partner (at 0 µM): ixabepilone | 78.3 ± 4.6 | 58.2 ± 0.79 | 47.2 ± 3.2 | 38.9 ± 2.8 | 38.1 ± 4.5

COc1cc2nccc(Oc3ccc(NC(=O)NC4CC4)c(Cl)c3)c2cc1C(N)=O [lenvatinib Mesylate]
plate partner (at 0 µM): Paclitaxel
Details | cell viability [%]
0.277778 µM | 106 ± 13
0.833333 µM | 107 ± 4.4
2.5 µM | 105 ± 10
7.5 µM | 91.7 ± 23
22.5 µM | 58.7 ± 7.5

CCCCC[C@H](O)/C=C/[C@H]1[C@H](O)CC(=O)[C@@H]1CCCCCCC(=O)O [Prostaglandin E1]
plate partner (at 0 µM): Tamoxifen
Details | cell viability [%]
0.617284 µM | 118 ± 2.9
1.85185 µM | 122 ± 10
5.55556 µM | 112 ± 6.8
16.6667 µM | 103 ± 10
50 µM | 79.6 ± 0.8

CCC(=O)OCC(=O)[C@@]1(OC(=O)CC)[C@@H](C)C[C@H]2[C@@H]3CCC4=CC(=O)C=C[C@]4(C)[C@@]3(F)[C@@H](O)C[C@@]21C [Betamethasone dipropionate]
plate partner (at 0 µM): Ruxolitinib
Details | cell viability [%]
0.037037 µM | 111 ± 4.2
0.111111 µM | 107 ± 3.7
0.333333 µM | 113 ± 4.8
1 µM | 112 ± 10
3 µM | 108 ± 3.3

COc1cc(Nc2ncc3c(n2)-c2ccc(Cl)cc2C(c2c(F)cccc2OC)=NC3)ccc1C(=O)O [Alisertib]
cell viability [%]
Details | plate partner (at 0 µM): Cabazitaxel | plate partner (at 0 µM): Imatinib | plate partner (at 0 µM): Megestrol | plate partner (at 0 µM): Mitoxantrone | plate partner (at 0 µM): Pazopanib | plate partner (at 0 µM): Vemurafenib | plate partner (at 0 µM): Vincristine | plate partner (at 0 µM): ixabepilone
0.0617284 µM | 98.4 ± 12 | 87.6 ± 6.2 | 86.6 ± 10 | 90.5 ± 12 | 85.5 ± 6.6 | 76.2 ± 7.1 | 86.4 ± 5.9 | 105 ± 17
0.185185 µM | 96.5 ± 16 | 81.1 ± 8.4 | 89.8 ± 15 | 84.1 ± 10 | 84.6 ± 10 | 74.8 ± 7.9 | 70.4 ± 7.8 | 86.6 ± 9
0.555556 µM | 89.3 ± 7.4 | 83.6 ± 8.3 | 89 ± 7.3 | 87.1 ± 9.8 | 89.2 ± 8.3 | 86.9 ± 3.2 | 91.8 ± 6.3 | 101 ± 6.2
1.66667 µM | 87.2 ± 7.3 | 80.7 ± 6.2 | 86.3 ± 14 | 90 ± 7.5 | 85.5 ± 8 | 82.5 ± 9.4 | 87.9 ± 8 | 106 ± 5.5
5 µM | 84.6 ± 5.7 | 77.6 ± 6.2 | 90.3 ± 15 | 92.7 ± 10 | 83.3 ± 12 | 73.9 ± 4.8 | 90.5 ± 6.4 | 103 ± 4

CN(C)C(=O)c1cc2cnc(Nc3ccc(N4CCNCC4)cn3)nc2n1C1CCCC1 [Ribociclib]
cell viability [%]
Details | 0.123457 µM | 0.37037 µM | 1.11111 µM | 3.33333 µM | 10 µM
plate partner (at 0 µM): Cabazitaxel | 87.8 ± 5.3 | 85.5 ± 6.6 | 85.6 ± 2.5 | 89.6 ± 5.8 | 83.8 ± 2.8
plate partner (at 0 µM): Vemurafenib | 92.3 ± 5 | 92.8 ± 10 | 88.7 ± 4.6 | 84.7 ± 2.3 | 84 ± 4.4
plate partner (at 0 µM): ixabepilone | 100 ± 9.6 | 95.3 ± 13 | 93.1 ± 11 | 96.6 ± 13 | 97.6 ± 17

Cc1onc(-c2ccccc2)c1-c1ccc(S(N)(=O)=O)cc1 [Valdecoxib]
plate partner (at 0: 5-Fluorouracil µM
Details | cell viability [%]
0.17284 µM | 90 ± 3.8
0.518519 µM | 99.8 ± 5
1.55556 µM | 95.2 ± 5.6
4.66667 µM | 88.2 ± 7.9
14 µM | 78.7 ± 9.6

CC(=O)[C@H]1CC[C@H]2[C@@H]3CCC4=CC(=O)CC[C@]4(C)[C@H]3CC[C@]12C [Progesterone]
cell viability [%]
Details | 0.0493827 µM | 0.148148 µM | 0.444444 µM | 1.33333 µM | 4 µM
plate partner (at 0 µM): Axitinib | 91.7 ± 16 | 80.1 ± 12 | 83.8 ± 16 | 71.9 ± 25 | 69.5 ± 11
plate partner (at 0 µM): ixabepilone | 99 ± 14 | 98.2 ± 12 | 99.5 ± 14 | 96.3 ± 12 | 97.2 ± 3.8

CN1CCN(CCCN2c3ccccc3Sc3ccc(C(F)(F)F)cc32)CC1 [Trifluoperazine 2HCl]
cell viability [%]
Details | plate partner (at 0 µM): Erlotinib | plate partner (at 0 µM): Imatinib | plate partner (at 0 µM): Megestrol | plate partner (at 0 µM): Mitoxantrone | plate partner (at 0 µM): Pazopanib | plate partner (at 0 µM): Vemurafenib | plate partner (at 0 µM): Vincristine
0.185185 µM | 91.2 ± 6.1 | 85.2 ± 5.2 | 110 ± 7.4 | 82.74 ± 0.63 | 94.1 ± 5.9 | 105 ± 13 | 110 ± 6.8
0.555556 µM | 85.8 ± 1.3 | 78.8 ± 5.7 | 105 ± 6.2 | 86.5 ± 7.4 | 89.8 ± 3.6 | 110 ± 18 | 102 ± 7.7
1.66667 µM | 86.2 ± 10 | 79.7 ± 8.6 | 104 ± 7.1 | 73.8 ± 4.1 | 86.7 ± 1.1 | 122 ± 16 | 101 ± 6.7
5 µM | 78.5 ± 2.9 | 61.4 ± 1.9 | 101.1 ± 0.7 | 28.3 ± 2.8 | 17.1 ± 1.8 | 97.5 ± 5.6 | 89.9 ± 2.1
15 µM | 9.16 ± 1.8 | 2.7 ± 0.7 | 9.06 ± 1.5 | 2.29 ± 0.16 | 0.532 ± 0.064 | 18.2 ± 1.5 | 21.5 ± 1.3

Structures can show the parent of a compound that is named as a salt. ± gives the standard deviation of the averaged measurements. Some well-known active drugs show little effect in this data set, so a weak value is uncertain.
